Data: the supplement of paper PMC4604168 (melanoma cell lines)
Some of the results follow. Repeats are few or missing, and single values can be far off.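 Imaging used 1,536-well plates; nuclei positive for cleaved PARP by antibody were divided by total DNA-stained nuclei to yield the apoptosis fraction. Doses for screening kept most cells viable, and cell lines differ markedly in resting and induced cleaved-PARP levels.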

Experiments:
Assay in all cases: cleaved PARP positive nuclei fraction relative to DMSO control; melanoma cells; higher = more apoptosis
Conditions in all cases: library dose: low library concentration; 72 h
MZ2-MEL = tested on: MZ2-MEL
MeWo = tested on: MeWo
RPMI7951 = tested on: RPMI7951
RVH-421 = tested on: RVH-421
SkMel28 = tested on: SkMel28
SkMel30 = tested on: SkMel30
UACC62 = tested on: UACC62
WM115 = tested on: WM115
WM1716 = tested on: WM1716
WM1745 = tested on: WM1745
WM3526 = tested on: WM3526
WM3619 = tested on: WM3619
WM451Lu = tested on: WM451Lu
SkMel2 = tested on: SkMel2
SkMel5 = tested on: SkMel5
UACC257 = tested on: UACC257

Structure (SMILES)	cleaved PARP positive nuclei fraction (MZ2-MEL)	cleaved PARP positive nuclei fraction (MeWo)	cleaved PARP positive nuclei fraction (RPMI7951)	cleaved PARP positive nuclei fraction (RVH-421)	cleaved PARP positive nuclei fraction (SkMel28)	cleaved PARP positive nuclei fraction (SkMel30)	cleaved PARP positive nuclei fraction (UACC62)	cleaved PARP positive nuclei fraction (WM115)	cleaved PARP positive nuclei fraction (WM1716)	cleaved PARP positive nuclei fraction (WM1745)	cleaved PARP positive nuclei fraction (WM3526)	cleaved PARP positive nuclei fraction (WM3619)	cleaved PARP positive nuclei fraction (WM451Lu)	cleaved PARP positive nuclei fraction (SkMel2)	cleaved PARP positive nuclei fraction (SkMel5)	cleaved PARP positive nuclei fraction (UACC257)
NC1(c2ccc(-c3nc4ccn5c(=O)[nH]nc5c4cc3-c3ccccc3)cc2)CCC1 + Nc1ccn([C@@H]2O[C@H](CO)[C@@H](O)C2(F)F)c(=O)n1 [gemcitabine] (first compound 0.4 µM, partner dose 0.0004 µM)	104%	129%	101%	115%	143%	88.9%	112%	218%	136%	110%	47.4%	119%	88%	–	–	–
NC(=O)c1ccc(N(C(N)=O)c2c(F)cccc2F)nc1-c1ccc(F)cc1F + CS(=O)(=O)c1ccc(C(=O)Nc2ccc(Cl)c(-c3ccccn3)c2)c(Cl)c1 [vismodegib] (first compound 0.4 µM, partner dose 1 µM)	–	49.5%	125%	77.1%	75.6%	74.3%	68.8%	151%	46.1%	81%	34.3%	93%	155%	113%	–	–
CS(=O)(=O)c1ccc(C(=O)Nc2ccc(Cl)c(-c3ccccn3)c2)c(Cl)c1 [vismodegib] + CO[C@H]1C[C@@H]2CC[C@@H](C)[C@@](O)(O2)C(=O)C(=O)N2CCCC[C@H]2C(=O)O[C@H]([C@H](C)C[C@@H]2CC[C@@H](OCCO)[C@H](OC)C2)CC(=O)[C@H](C)/C=C(\C)[C@@H](O)[C@@H](OC)C(=O)[C@H](C)C[C@H](C)/C=C/C=C/C=C/1C [everolimus] (first compound 1 µM, partner dose 0.02 µM)	91.7%	63.7%	90.1%	156%	350%	120%	183%	135%	283%	103%	120%	114%	383%	–	–	–
NC1(c2ccc(-c3nc4ccn5c(=O)[nH]nc5c4cc3-c3ccccc3)cc2)CCC1 + Cc1cc(N2CCOCC2)cc2[nH]c(-c3c(NC[C@@H](O)c4cccc(Cl)c4)cc[nH]c3=O)nc12 [BMS536924] (first compound 0.4 µM, partner dose 0.2 µM)	–	173%	47%	50.5%	83.5%	217%	198%	296%	390%	116%	87.2%	96%	128%	93.4%	132%	42.6%
Cn1sc(=O)n(Cc2ccccc2)c1=O + CO[C@H]1C[C@@H]2CC[C@@H](C)[C@@](O)(O2)C(=O)C(=O)N2CCCC[C@H]2C(=O)O[C@H]([C@H](C)C[C@@H]2CC[C@@H](OCCO)[C@H](OC)C2)CC(=O)[C@H](C)/C=C(\C)[C@@H](O)[C@@H](OC)C(=O)[C@H](C)C[C@H](C)/C=C/C=C/C=C/1C [everolimus] (first compound 0.4 µM, partner dose 0.02 µM)	53%	83.1%	73.4%	157%	300%	59.8%	351%	130%	38.2%	105%	98.7%	117%	239%	–	–	–
NC1(c2ccc(-c3nc4ccn5c(=O)[nH]nc5c4cc3-c3ccccc3)cc2)CCC1 + CO[C@@H]1[C@H](N(C)C(=O)c2ccccc2)C[C@H]2O[C@]1(C)n1c3ccccc3c3c4c(c5c6ccccc6n2c5c31)C(=O)NC4 [Midostaurin] (first compound 0.4 µM, partner dose 0.08 µM)	–	94.3%	211%	77%	82.7%	182%	560%	359%	249%	168%	107%	109%	83.5%	127%	74.7%	77.5%
CC1(C)CCC(c2ccc(Cl)cc2)=C(CN2CCN(c3ccc(C(=O)NS(=O)(=O)c4ccc(N[C@H](CCN5CCOCC5)CSc5ccccc5)c(S(=O)(=O)C(F)(F)F)c4)cc3)CC2)C1 + CO[C@H]1C[C@@H]2CC[C@@H](C)[C@@](O)(O2)C(=O)C(=O)N2CCCC[C@H]2C(=O)O[C@H]([C@H](C)C[C@@H]2CC[C@@H](OCCO)[C@H](OC)C2)CC(=O)[C@H](C)/C=C(\C)[C@@H](O)[C@@H](OC)C(=O)[C@H](C)C[C@H](C)/C=C/C=C/C=C/1C [everolimus] (first compound 0.4 µM, partner dose 0.02 µM)	155%	661%	104%	119%	555%	875%	163%	1290%	114%	503%	75.4%	213%	179%	–	–	–
CC(=O)O[C@@]12CO[C@@H]1C[C@H](O)[C@@]1(C)C(=O)[C@H](O)C3=C(C)[C@@H](OC(=O)[C@H](O)[C@@H](NC(=O)OC(C)(C)C)c4ccccc4)C[C@@](O)([C@@H](OC(=O)c4ccccc4)[C@H]21)C3(C)C [Docetaxel] + Cc1cc([N+](=O)[O-])ccc1NS(=O)(=O)c1cc(Cl)ccc1Cl [FH535] (first compound 0.0001 µM, partner dose 1 µM)	–	110%	349%	103%	324%	51.6%	498%	234%	284%	144%	160%	150%	364%	485%	87.1%	163%
